# Reference: PubChem BioAssay AID1259291 (Sanger Institute, 2017)
# Purpose: 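Find kinase and colorectal-cancer-mutated genes whose loss kills HT29 cells or aids anchor drugs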 (primary screen)
# Cells: HT29 human colorectal cancer cells
# Reagent: siRNA pool against human genes
# Treatment: anchor drugs added a day after transfection: BYL719 at 1 µM, cetuximab at 5 µg/ml or trametinib at 10 nM, or DMSO vehicle alone
# Measurement: 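Cell viability as a fraction of the non-targeting pool, mean of replicates, robust z-scores from control wells; synergy scores for BYL719 (1 µM), cetuximab (5 µg/ml), trametinib (10 nM)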
# Reading the numbers: robust z-score, knock-down alone and viability, knock-down alone: higher = more viable cells; synergy score with BYL719 and synergy score with cetuximab and synergy score with trametinib: higher = stronger synergistic killing with drug
# Active means: 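Essential when the robust z-score for knock-down without any drug is below -3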
# Meaning of the calls: active = essential (knock-down alone); inactive = no change alone
# This is a random part of 794 deposited reagents. In the full data, 15 (1.9%) are marked active. 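Calls rest on knock-down alone; drug synergy scores do not affect them; drugs added a day post-transfection, DMSO vehicle as comparison.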 A number with no mark means an inactive call. No viability above 1 is reported: the scale is capped. Not stated in the record: the amount of reagent, the time to read-out.
gene knocked down,"robust z-score, knock-down alone","viability, knock-down alone (fraction of control)",synergy score with BYL719,synergy score with cetuximab,synergy score with trametinib
SGK2,0.452,0.994,0.183,0.0531,0.0623
ARAF,0.29,0.984,-0.039,0.0738,0.0094
NEK11,-2.03,0.84,-0.0763,-0.0112,0.0329
FN1,0.552,1,-0.158,0,0.0299
CKMT2,0.552,1,0.0863,0,-0.00278
PIK3C3,0.552,1,-0.0439,0,-0.0325
FASTK,0.552,1,0.0921,0.0278,-0.0373
NUP62,0.552,1,-0.127,0,0.0571
PRKD2,0.411,0.991,0.0589,0.112,-0.136
EPHB4,0.552,1,0.0463,0.0784,0.0478
PRKX,0.552,1,-0.0974,0,0.00991
DAPK1,0.552,1,-0.0385,0,-0.031
CDK19,-0.164,0.956,-0.00293,0.0233,0.0441
NEK3,-0.242,0.951,0.0164,0.0485,0.0165
TSSK2,0.552,1,0.0212,0,0.0366
PKDCC,0.552,1,0.0415,0,0.178
SCYL3,0.326,0.986,-0.0123,0.0259,0.0614
STK38,0.363,0.988,0.0474,-0.0118,0.0443
MAGI3,0.552,1,0.0507,0,0.0201
RELA,0.552,1,-0.0932,0,0.104
CSNK1G1,0.552,1,-0.108,0.109,0.00344
NRBP2,-1.65,0.864,0.0404,0.0963,0.0536
CERK,0.552,1,0.0121,0,-0.0865
CMPK1,0.552,1,0.0129,0,-0.0407
TGFBR1,0.552,1,-0.0417,0.00698,0.0618
AKAP9,0.552,1,0.0435,0.106,0.0233
GSK3A,0.0287,0.968,-0.165,0.0176,0.0121
RPS6KA6,-0.771,0.918,-0.127,-0.0484,0.103
MAP4K3,0.552,1,0.00127,0,0.165
MPP3,0.552,1,0.0699,0.123,0.24

A run of entries of the results above:
gene knocked down,"robust z-score, knock-down alone","viability, knock-down alone (fraction of control)",synergy score with BYL719,synergy score with cetuximab,synergy score with trametinib
STK38,0.363,0.988,0.0474,-0.0118,0.0443
MAGI3,0.552,1,0.0507,0,0.0201
RELA,0.552,1,-0.0932,0,0.104
CSNK1G1,0.552,1,-0.108,0.109,0.00344
NRBP2,-1.65,0.864,0.0404,0.0963,0.0536
CERK,0.552,1,0.0121,0,-0.0865
CMPK1,0.552,1,0.0129,0,-0.0407
TGFBR1,0.552,1,-0.0417,0.00698,0.0618

Continued.
gene knocked down,"robust z-score, knock-down alone","viability, knock-down alone (fraction of control)",synergy score with BYL719,synergy score with cetuximab,synergy score with trametinib
LMTK3,0.123,0.973,0.0632,0.153,0.159
RPS6KA3,0.552,1,-0.119,0.0433,-0.00379
NEK5,0.552,1,-0.0811,0.126,0.0525
CDK16,0.552,1,-0.158,0.0486,0.0347
CAMK4,0.552,1,-0.00342,0.0239,-0.116
CDK17,0.552,1,0.00406,0.0276,-0.0272
POMK,-0.452,0.938,-0.0483,-0.0623,-0.0865
MSR1,-0.0819,0.961,-0.0862,-0.0361,-0.0517
ATRX,0.000174,0.966,-0.186,-0.0343,-0.102
SMAD2,0.552,1,-0.0917,0.0141,0.0397
ALDH18A1,0.536,0.999,-0.0305,-0.00105,-0.082
PRAG1,-1.14,0.895,0.0929,0.00678,0.2
IKBKG,0.552,1,0.069,0,0.149
CKB,0.148,0.975,-0.0892,0.0852,-0.0229
CREBBP,-1.05,0.9,-0.00717,-0.0226,-0.0301
PRKAG1,0.552,1,-0.093,0.0436,0.0318
KSR2,0.552,1,-0.0206,0.0298,0.0209
STK16,0.153,0.975,0.0302,0.0341,-0.0818
ADCK5,0.552,1,0.0509,0.148,0.0774
DLG4,0.552,1,-0.0729,0,0.126
